According to the supplement of paper PMC10849652:
Some of the results follow.

The chains behind the UniProt entries cited, without tags or fusion partners. Where a name states a change or a piece, a line headed by the entry shows the natural chain unless it says otherwise.
UniProt Q15652: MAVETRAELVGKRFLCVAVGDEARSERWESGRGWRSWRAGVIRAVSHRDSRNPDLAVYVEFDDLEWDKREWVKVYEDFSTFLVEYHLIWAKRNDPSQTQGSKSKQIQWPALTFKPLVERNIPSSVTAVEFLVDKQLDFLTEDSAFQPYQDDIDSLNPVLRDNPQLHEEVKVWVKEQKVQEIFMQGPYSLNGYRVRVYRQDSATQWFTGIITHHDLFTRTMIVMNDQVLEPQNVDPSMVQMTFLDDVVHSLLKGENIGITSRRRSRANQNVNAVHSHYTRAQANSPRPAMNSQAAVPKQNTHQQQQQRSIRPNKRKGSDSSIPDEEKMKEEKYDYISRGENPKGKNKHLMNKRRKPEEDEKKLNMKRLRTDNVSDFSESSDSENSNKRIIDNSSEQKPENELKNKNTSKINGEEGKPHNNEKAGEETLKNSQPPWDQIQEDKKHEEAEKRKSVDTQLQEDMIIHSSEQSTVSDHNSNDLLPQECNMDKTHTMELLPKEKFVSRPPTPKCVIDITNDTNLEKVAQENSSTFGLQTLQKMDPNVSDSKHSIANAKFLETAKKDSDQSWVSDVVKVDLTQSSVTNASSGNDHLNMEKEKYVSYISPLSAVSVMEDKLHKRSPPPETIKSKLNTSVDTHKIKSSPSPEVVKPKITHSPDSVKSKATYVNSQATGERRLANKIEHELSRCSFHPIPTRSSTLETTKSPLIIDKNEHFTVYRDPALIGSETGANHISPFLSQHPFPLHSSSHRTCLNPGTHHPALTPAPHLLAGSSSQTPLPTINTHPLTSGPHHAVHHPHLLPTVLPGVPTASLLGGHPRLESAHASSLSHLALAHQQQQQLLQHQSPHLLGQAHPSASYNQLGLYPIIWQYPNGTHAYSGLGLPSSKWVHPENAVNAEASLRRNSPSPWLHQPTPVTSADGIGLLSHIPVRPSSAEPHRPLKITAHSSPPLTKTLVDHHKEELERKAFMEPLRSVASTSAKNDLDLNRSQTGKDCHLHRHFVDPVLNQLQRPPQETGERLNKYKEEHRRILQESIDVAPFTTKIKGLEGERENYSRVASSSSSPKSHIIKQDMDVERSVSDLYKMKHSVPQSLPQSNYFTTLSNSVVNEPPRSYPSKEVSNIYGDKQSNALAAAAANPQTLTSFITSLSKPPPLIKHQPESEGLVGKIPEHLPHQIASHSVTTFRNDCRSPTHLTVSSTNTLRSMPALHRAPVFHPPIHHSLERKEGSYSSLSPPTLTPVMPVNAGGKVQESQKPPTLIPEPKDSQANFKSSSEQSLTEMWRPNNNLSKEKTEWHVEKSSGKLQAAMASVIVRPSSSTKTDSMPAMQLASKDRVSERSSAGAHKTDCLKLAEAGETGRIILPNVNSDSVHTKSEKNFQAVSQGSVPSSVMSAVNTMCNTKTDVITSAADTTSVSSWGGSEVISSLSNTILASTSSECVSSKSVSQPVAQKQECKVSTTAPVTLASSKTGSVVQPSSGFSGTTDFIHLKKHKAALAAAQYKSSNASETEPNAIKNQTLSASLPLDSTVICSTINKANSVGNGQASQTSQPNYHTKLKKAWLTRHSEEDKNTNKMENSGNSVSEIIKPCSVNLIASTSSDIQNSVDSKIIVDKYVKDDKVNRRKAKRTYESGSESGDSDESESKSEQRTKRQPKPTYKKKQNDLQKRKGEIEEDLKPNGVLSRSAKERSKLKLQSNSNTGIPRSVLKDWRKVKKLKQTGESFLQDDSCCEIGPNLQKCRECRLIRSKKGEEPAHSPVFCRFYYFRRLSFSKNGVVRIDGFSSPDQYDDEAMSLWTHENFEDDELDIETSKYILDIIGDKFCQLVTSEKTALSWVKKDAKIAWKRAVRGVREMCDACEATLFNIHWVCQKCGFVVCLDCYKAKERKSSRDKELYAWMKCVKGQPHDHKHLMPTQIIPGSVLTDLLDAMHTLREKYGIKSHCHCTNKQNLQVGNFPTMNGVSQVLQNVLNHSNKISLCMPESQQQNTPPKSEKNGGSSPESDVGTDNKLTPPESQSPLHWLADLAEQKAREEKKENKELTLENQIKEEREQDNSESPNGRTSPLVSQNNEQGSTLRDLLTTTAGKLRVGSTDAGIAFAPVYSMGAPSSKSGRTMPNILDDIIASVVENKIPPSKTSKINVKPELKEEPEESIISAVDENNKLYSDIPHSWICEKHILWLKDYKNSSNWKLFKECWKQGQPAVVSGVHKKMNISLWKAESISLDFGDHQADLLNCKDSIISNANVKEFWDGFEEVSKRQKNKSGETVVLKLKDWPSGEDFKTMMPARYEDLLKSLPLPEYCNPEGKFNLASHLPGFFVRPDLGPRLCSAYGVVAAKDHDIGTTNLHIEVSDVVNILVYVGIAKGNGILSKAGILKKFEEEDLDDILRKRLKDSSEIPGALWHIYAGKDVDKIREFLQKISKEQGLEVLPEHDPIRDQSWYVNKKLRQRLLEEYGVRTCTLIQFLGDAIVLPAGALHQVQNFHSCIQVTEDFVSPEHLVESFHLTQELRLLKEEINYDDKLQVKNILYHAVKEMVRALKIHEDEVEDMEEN
UniProt O76095: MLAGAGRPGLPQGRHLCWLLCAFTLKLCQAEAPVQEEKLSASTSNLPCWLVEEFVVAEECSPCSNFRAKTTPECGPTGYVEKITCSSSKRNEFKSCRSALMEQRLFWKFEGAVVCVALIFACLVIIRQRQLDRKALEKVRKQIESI
UniProt O60268: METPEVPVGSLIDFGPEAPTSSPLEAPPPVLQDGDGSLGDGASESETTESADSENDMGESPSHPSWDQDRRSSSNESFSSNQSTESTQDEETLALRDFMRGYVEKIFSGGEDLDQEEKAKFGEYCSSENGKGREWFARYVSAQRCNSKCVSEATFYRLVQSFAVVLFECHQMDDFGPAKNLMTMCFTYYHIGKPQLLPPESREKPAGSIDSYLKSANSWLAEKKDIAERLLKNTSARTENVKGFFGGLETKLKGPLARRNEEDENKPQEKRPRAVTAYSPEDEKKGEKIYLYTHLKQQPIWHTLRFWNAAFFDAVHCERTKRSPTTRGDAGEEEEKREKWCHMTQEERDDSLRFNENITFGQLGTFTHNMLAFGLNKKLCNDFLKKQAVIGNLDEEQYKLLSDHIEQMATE
UniProt Q14667: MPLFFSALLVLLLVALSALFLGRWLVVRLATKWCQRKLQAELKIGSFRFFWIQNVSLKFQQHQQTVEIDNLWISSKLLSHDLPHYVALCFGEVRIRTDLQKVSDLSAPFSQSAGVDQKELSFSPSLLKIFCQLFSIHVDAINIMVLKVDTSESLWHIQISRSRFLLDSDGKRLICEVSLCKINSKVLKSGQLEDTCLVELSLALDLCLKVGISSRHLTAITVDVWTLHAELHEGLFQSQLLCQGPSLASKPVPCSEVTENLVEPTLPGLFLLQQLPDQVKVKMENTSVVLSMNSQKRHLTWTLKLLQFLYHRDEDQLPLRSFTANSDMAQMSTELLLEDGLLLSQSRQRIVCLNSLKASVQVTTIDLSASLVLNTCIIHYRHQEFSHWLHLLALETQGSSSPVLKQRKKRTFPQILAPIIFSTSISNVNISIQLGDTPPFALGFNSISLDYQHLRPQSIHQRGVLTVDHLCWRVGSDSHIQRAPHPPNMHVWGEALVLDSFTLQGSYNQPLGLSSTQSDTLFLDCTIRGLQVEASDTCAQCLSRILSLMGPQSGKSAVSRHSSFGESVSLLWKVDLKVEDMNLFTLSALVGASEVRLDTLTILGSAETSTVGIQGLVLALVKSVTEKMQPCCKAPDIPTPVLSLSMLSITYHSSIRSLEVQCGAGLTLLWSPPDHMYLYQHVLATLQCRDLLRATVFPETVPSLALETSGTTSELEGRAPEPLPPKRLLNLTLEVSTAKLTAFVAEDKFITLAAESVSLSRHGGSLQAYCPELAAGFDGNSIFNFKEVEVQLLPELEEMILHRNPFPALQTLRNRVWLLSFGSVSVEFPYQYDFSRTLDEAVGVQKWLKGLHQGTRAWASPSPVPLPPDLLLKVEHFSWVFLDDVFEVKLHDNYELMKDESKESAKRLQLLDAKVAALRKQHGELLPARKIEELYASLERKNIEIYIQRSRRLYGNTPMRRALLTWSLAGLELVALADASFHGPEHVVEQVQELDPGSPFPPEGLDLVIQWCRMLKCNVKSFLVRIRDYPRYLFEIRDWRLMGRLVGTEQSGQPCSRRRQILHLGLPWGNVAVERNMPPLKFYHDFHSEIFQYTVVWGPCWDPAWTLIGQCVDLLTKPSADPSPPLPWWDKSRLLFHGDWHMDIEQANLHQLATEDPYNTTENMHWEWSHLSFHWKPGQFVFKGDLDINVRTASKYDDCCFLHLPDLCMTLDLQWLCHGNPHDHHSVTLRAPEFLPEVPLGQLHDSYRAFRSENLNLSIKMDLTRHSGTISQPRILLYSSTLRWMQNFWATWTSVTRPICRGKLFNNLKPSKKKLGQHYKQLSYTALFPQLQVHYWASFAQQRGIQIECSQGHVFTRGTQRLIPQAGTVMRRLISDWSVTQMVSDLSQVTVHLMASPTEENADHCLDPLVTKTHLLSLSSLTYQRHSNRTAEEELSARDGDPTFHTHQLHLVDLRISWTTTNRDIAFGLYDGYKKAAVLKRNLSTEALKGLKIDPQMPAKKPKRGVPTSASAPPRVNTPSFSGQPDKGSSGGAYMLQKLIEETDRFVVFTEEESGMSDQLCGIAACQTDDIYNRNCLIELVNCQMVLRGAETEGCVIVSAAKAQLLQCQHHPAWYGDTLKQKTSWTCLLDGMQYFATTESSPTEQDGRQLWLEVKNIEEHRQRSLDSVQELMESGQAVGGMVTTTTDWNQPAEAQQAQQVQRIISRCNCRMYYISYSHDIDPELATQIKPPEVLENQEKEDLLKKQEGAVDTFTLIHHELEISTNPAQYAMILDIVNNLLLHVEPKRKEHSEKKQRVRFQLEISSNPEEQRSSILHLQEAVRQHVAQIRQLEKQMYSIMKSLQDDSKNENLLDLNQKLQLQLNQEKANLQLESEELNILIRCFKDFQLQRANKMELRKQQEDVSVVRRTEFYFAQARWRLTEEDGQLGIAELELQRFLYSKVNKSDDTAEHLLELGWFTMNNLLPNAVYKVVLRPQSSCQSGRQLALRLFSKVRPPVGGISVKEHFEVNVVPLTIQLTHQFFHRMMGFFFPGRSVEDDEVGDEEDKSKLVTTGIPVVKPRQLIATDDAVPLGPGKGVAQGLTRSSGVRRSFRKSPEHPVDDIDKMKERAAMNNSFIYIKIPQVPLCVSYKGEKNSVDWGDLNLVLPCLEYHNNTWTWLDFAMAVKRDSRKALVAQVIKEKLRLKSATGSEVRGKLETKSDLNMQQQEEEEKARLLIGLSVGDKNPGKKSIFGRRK
UniProt Q9H0B6: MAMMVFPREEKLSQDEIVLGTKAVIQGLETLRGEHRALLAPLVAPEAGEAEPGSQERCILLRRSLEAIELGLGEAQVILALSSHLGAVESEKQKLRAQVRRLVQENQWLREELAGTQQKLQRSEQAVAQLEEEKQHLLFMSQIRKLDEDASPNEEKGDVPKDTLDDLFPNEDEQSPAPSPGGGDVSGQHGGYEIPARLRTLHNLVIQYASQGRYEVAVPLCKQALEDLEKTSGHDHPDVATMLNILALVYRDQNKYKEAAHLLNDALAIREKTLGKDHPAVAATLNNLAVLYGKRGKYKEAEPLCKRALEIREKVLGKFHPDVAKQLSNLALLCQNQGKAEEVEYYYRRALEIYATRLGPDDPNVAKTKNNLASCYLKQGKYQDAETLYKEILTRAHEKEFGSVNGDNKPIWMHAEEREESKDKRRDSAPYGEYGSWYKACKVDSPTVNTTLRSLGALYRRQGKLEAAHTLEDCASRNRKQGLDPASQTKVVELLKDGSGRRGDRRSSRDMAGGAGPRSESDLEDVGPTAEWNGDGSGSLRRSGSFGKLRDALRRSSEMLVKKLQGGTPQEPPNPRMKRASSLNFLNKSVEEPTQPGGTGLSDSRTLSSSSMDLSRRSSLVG
UniProt Q8IYS2: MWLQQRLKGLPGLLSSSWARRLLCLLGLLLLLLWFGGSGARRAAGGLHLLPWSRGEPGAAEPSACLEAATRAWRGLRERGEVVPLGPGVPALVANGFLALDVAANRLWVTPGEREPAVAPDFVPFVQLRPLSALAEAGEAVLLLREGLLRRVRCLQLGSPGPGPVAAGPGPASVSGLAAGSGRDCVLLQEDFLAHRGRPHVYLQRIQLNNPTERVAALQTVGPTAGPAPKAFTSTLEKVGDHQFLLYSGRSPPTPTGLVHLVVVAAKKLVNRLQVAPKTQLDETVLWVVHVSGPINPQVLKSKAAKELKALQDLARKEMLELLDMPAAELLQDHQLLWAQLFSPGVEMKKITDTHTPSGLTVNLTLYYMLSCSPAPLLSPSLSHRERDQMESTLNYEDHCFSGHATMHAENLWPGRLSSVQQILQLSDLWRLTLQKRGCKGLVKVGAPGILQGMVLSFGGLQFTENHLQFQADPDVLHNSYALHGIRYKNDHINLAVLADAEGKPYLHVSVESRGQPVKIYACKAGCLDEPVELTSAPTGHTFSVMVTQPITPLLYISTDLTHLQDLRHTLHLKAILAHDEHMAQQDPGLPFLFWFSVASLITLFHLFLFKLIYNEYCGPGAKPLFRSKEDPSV

Compound: C1=CC=C(C=C1)[C@H](COC2=CC3=C(C=C2)NC(=O)N3)NC(=O)C4=CC=CN(C4=O)CC5=CC(=C(C=C5)F)F
Assay: log2 fold change, soluble protein after heating vs DMSO (PISA); higher = thermal stabilisation; K562 cells, 10 uM, 30 min; active = over 0.2 and 3.5 SD of the protein, either way, in both replicates (recomputed)
In short: (§1)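 Quantification of soluble protein used TMTpro 16plex LC-MS/MS, with channel sums equalised. Samples were the supernatant after 21,000xg for 90 min of pooled aliquots from K562 cells (2×10^6 cells/mL) treated with 10 μM compound for 30 min, heated for 3 min over 48°C-58°C, and extracted in PBS with 0.5% NP-40 at 4°C. Values, from duplicates, describe thermal stability against control samples on a log2 fold-change scale.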

| Target | log2 fold change |
| --- | --- |
| KCTD10 (UniProt Q9H3F6) | inactive: -0.014 |
| KRT87P (UniProt A6NCN2) | inactive: 0.037 |
| KHSRP (UniProt Q92945) | inactive: 0.008 |
| JMJD1C (UniProt Q15652) | inactive: 0.007 |
| KIF26A (UniProt Q9ULI4) | inactive: 0.077 |
| KIF23 (UniProt Q02241) | inactive: -0.027 |
| KDM5D isoform 3 (UniProt Q9BY66) | inactive: 0.2 |
| JMJD4 (UniProt Q9H9V9) | inactive: 0.26 |
| JCHAIN (UniProt P01591) | inactive: -0.009 |
| KIAA1522 isoform 2 (UniProt Q9P206) | inactive: 0.073 |
| KBTBD4 isoform 2 (UniProt Q9NVX7) | inactive: 0.11 |
| KPNB1 (UniProt Q14974) | inactive: -0.035 |
| JTB (UniProt O76095) | inactive: 0.01 |
| KCTD7 (UniProt Q96MP8) | inactive: 0.057 |
| KIAA0513 (UniProt O60268) | inactive: -0.009 |
| KLHL18 (UniProt O94889) | inactive: 0.014 |
| KDM3B (UniProt Q7LBC6) | inactive: -0.013 |
| KCNAB2 (UniProt Q13303) | inactive: -0.055 |

| Target | log2 fold change |
| --- | --- |
| KIAA0100 (UniProt Q14667) | inactive: -0.102 |
| KNG1 (UniProt P01042) | inactive: -0.055 |
| KDELR2 (UniProt P33947) | inactive: -0.038 |
| JMJD7 (UniProt P0C870) | inactive: 0.133 |
| KCTD2 (UniProt Q14681) | inactive: 0.008 |
| KDM5C (UniProt P41229) | inactive: -0.105 |
| KPNA6 (UniProt O60684) | inactive: -0.017 |
| KLC2 (UniProt Q9H0B6) | inactive: -0.046 |
| KLC1 isoform 6 (UniProt Q07866) | inactive: -0.027 |
| KDM2B (UniProt Q8NHM5) | inactive: -0.174 |
| KBTBD2 (UniProt Q8IY47) | inactive: 0 |
| KIFAP3 (UniProt Q92845) | inactive: 0.129 |
| KHDC4 (UniProt Q7Z7F0) | inactive: -0.063 |
| KCMF1 (UniProt Q9P0J7) | inactive: -0.024 |
| KPTN (UniProt Q9Y664) | inactive: -0.021 |
| KCTD9 (UniProt Q7L273) | inactive: -0.011 |
| KIAA2013 isoform 2 (UniProt Q8IYS2) | inactive: 0.025 |
| JPT1 (UniProt Q9UK76) | inactive: -0.009 |

Compound: CC1=C(SC2=C1C(=N[C@H](C3=NN=C(N32)C)CC(=O)N)C4=CC=C(C=C4)Cl)C
Assay: as above
In short: as §1

| Target | log2 fold change |
| --- | --- |
| KCTD10 (UniProt Q9H3F6) | inactive: -0.009 |
| KHSRP (UniProt Q92945) | inactive: 0.026 |
| JMJD1C (UniProt Q15652) | inactive: 0.07 |
| KIF23 (UniProt Q02241) | inactive: 0.107 |
| KDM5D isoform 3 (UniProt Q9BY66) | inactive: 0.086 |
| KIAA1522 isoform 2 (UniProt Q9P206) | inactive: -0.117 |
| KBTBD4 isoform 2 (UniProt Q9NVX7) | inactive: 0.091 |
| KPNB1 (UniProt Q14974) | inactive: -0.018 |
| JTB (UniProt O76095) | inactive: 0.061 |
| KIAA0513 (UniProt O60268) | inactive: 0.051 |
| KLHL18 (UniProt O94889) | inactive: 0.101 |
| KDM3B (UniProt Q7LBC6) | inactive: 0.026 |
| KCNAB2 (UniProt Q13303) | inactive: 0.057 |
| KIAA0100 (UniProt Q14667) | inactive: 0.072 |
| KNG1 (UniProt P01042) | inactive: 0.018 |
| KDELR2 (UniProt P33947) | inactive: -0.015 |
| KCTD2 (UniProt Q14681) | inactive: -0.01 |
| KDM5C (UniProt P41229) | inactive: 0.061 |
| KPNA6 (UniProt O60684) | inactive: -0.046 |
| KLC2 (UniProt Q9H0B6) | inactive: 0.085 |
| KLC1 isoform 6 (UniProt Q07866) | inactive: 0.057 |
| KBTBD2 (UniProt Q8IY47) | inactive: 0.12 |
| KHDC4 (UniProt Q7Z7F0) | inactive: 0.129 |
| KCMF1 (UniProt Q9P0J7) | inactive: -0.049 |
| KPTN (UniProt Q9Y664) | inactive: 0.135 |
| KCTD9 (UniProt Q7L273) | inactive: 0.028 |
| KIAA2013 isoform 2 (UniProt Q8IYS2) | inactive: -0.026 |
| JPT1 (UniProt Q9UK76) | inactive: 0.055 |

Compound: CC1=C2C(=CC=C1)N=C(N(C2=O)C3=CC=CC=C3C)CN4C=NC5=C(N=CN=C54)N
Assay: as above
In short: as §1

| Target | log2 fold change |
| --- | --- |
| KCTD10 (UniProt Q9H3F6) | inactive: 0.007 |
| KHSRP (UniProt Q92945) | inactive: 0.005 |
| JMJD1C (UniProt Q15652) | inactive: 0.112 |
| KIF23 (UniProt Q02241) | inactive: 0.048 |
| KDM5D isoform 3 (UniProt Q9BY66) | inactive: 0.102 |
| KIAA1522 isoform 2 (UniProt Q9P206) | inactive: -0.147 |
| KBTBD4 isoform 2 (UniProt Q9NVX7) | inactive: 0.099 |
| KPNB1 (UniProt Q14974) | inactive: -0.024 |
| JTB (UniProt O76095) | inactive: -0.098 |
| KIAA0513 (UniProt O60268) | inactive: 0.132 |
| KLHL18 (UniProt O94889) | inactive: 0.135 |
| KDM3B (UniProt Q7LBC6) | inactive: 0.08 |
| KCNAB2 (UniProt Q13303) | inactive: -0.025 |
| KIAA0100 (UniProt Q14667) | inactive: -0.031 |
| KNG1 (UniProt P01042) | inactive: 0.14 |
| KDELR2 (UniProt P33947) | inactive: 0.076 |
| KCTD2 (UniProt Q14681) | inactive: 0.022 |
| KDM5C (UniProt P41229) | inactive: 0.126 |
| KPNA6 (UniProt O60684) | inactive: 0.093 |
| KLC2 (UniProt Q9H0B6) | inactive: 0.118 |
| KLC1 isoform 6 (UniProt Q07866) | inactive: 0.036 |
| KBTBD2 (UniProt Q8IY47) | inactive: 0.049 |
| KHDC4 (UniProt Q7Z7F0) | inactive: 0.007 |
| KCMF1 (UniProt Q9P0J7) | inactive: -0.069 |
| KPTN (UniProt Q9Y664) | inactive: 0.035 |
| KCTD9 (UniProt Q7L273) | inactive: -0.027 |
| KIAA2013 isoform 2 (UniProt Q8IYS2) | inactive: 0.065 |
| JPT1 (UniProt Q9UK76) | inactive: 0.008 |
